These results are taken from publication PMC12564422.

The exact form of at least one protein or probe is not confirmed.

For series [1], the system named is EGFR (epidermal growth factor receptor). Description: competition (fluorescence displacement). As to conditions: on AuNP, 3'-thiol on strand 1, about 50 nm AuNPs, resuspended in water, aptamer M and Atto 1.2e-7 M, EGFR 880 pM, 1 h incubation, Tris-EDTA buffer listed among materials, commercial protein, label: 5'-ATTO 647N on strand 2.
For series [2] the test system is unchanged. Description: competition (fluorescence recovery by displacement of Atto strand). The following applies: on AuNP, Protocol A, mix +318% vs RES; 3'-thiol on strand 1; about 50 nm AuNPs, resuspended in water; aptamer M and Atto 1.2e-7 M, EGFR 880 pM, 1 h incubation; Tris-EDTA buffer listed among materials; commercial protein; label: 5'-ATTO 647N on strand 2.

Series [3] shares this test system. Description: competition (fluorescence; reversed assay, EGFR before Atto). The following applies: aptamer on AuNP, Protocol AREV, EGFR 0.88 nM, Atto 120 nM; 3'-thiol; about 50 nm AuNPs, resuspended in water; aptamer M and Atto 1.2e-7 M, EGFR 880 pM, 1 h incubation; Tris-EDTA buffer listed among materials; commercial protein; single-stranded DNA.

“GGACGGATTTAATCGCCGTAGAAAAGCATGTCAAAGCCGGAACCGTCC / GCTTTTCTACGGC [aptamer M / Atto complementary oligomer duplex]”: the binding result in series [1] (Protocol B (one intermediate wash), partial displacement, SPN +22%) is on record as “binds”; in series [1] (Protocol C (final wash only), Atto displaced into supernatant) it was “binds”; in series [2], “binds”.

For the sequence “GGACGGATTTAATCGCCGTAGAAAAGCATGTCAAAGCCGGAACCGTCC [aptamer M (EGFR-specific)]”, the binding result in series [3] is “binds”.
